Results from one PubChem assay

From PubChem BioAssay record AID912 (NCATS, 2007).

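Uptake of anthrax lethal toxin into cultured cells, read by FRET (460/530 nm ratio) and reported from the 460 nm channel; the cell line is not named here.
Each compound was tested as a concentration series from about 0.0005 to 40 µM.
The number is the fitted AC50 of the 460 nm signal alone; lower values mean a more potent effect. A falling signal goes with compounds filed as inhibitors or cytotoxic, a rising one with activators or fluorescent compounds (inferred from the filed classes).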

Values are in µM.
Common to all entries: measured here: 460 nm channel.
Part of the compounds only, not a random draw; the main read-out is not listed here.
Potencies fitted to partial, single-point or poorly fitting curves are rough.
The first word of each remark tells which way the curve ran; it can be opposite to the aim of the assay.

structure,AC50 (µM),curve as filed
CCOC(=O)c1c(N)n(Cc2ccc(OC)cc2)c2nc3ccccc3nc12,6.31,"rising, partial curve"
CN1CC[C@H](CN2c3ccccc3Sc3ccccc32)C1,0.1585,"falling, full curve"
CCCCCOC(=O)C1=C(C)N(C)C(=O)NC1c1cc(Br)c(O)c(OC)c1 (stereo unspecified),25.12,"rising, single point"
COC(=O)c1sccc1NC(=O)Cn1cnc2c1c(=O)n(C)c(=O)n2C,15.85,"falling, partial curve"
Fc1ccc(-c2nc3n(c2-c2ccncc2)CCS3)cc1,15.85,"falling, partial curve, poor fit"
Cc1ccn2cc(C(=O)Nc3ccc4c(c3)OCCO4)nc2c1,10,"falling, partial curve"
Cc1cccc(N2CCN(C(=O)CSCc3c(C)noc3C)CC2)c1C,5.012,"rising, single point"
Cn1nnnc1SCC(=O)c1ccco1,5.012,"rising, single point"
O=C(Nc1ccc2c(c1)OCO2)c1cc(C2CC2)on1,5.012,"falling, partial curve"
CCOC(=O)CS(=O)(=O)c1nc(-c2ccccc2)cc(C(F)(F)F)n1,3.981,"falling, partial curve"
COc1ccc(-c2nc3cnc(Nc4cccc(OC)c4)nc3n(C[C@H]3CCCO3)c2=O)cc1,1.995,"rising, full curve"
NC(=O)c1ccsc1NC(=O)COC(=O)C1CCCN1C(=O)c1cccs1 (stereo unspecified),0.7943,"rising, full curve, poor fit"
CC(C)OCCCn1c(-c2ccco2)nc2nc3ccccc3nc21,10,"rising, single point"
COc1ccc(Cl)c(N2CCN(CCCNC(=O)Nc3ccc(C)cc3)CC2)c1,7.943,"falling, partial curve"
CCCCC(CC)COP(=O)(OCC(CC)CCCC)OCC(CC)CCCC (stereo unspecified),12.59,"falling, partial curve"
CC(COc1ccccc1)N(CCCl)Cc1ccccc1 (stereo unspecified),31.62,"falling, partial curve, poor fit"
COc1ccc(C(c2nnnn2C(C)(C)C)N2CCN(c3nc4ccccc4s3)CC2)cc1OC (stereo unspecified),10,"rising, partial curve"
CCn1cnc2cc(NCc3ccc(C)cc3)ccc21,15.85,"falling, partial curve, poor fit"
COC(=O)C(C)Sc1nc2c(c(=O)n(C)c(=O)n2C)n1Cc1cccc(C)c1 (stereo unspecified),0.5012,"falling, full curve, poor fit"
COc1ccc2[nH]c3c(NCCN(C(C)C)C(C)C)ncnc3c2c1,1.259,"falling, partial curve, poor fit"
O=C(CC1OC(=O)c2ccccc21)NC1CCCCC1 (stereo unspecified),5.012,"rising, single point"
O=C(Cc1cccs1)Nc1ccccn1,1.259,"falling, partial curve, poor fit"
CN(C)CCNc1ccccn1,0.7943,"falling, partial curve"
CCc1ccc2c(COn3nnc4ccc(S(=O)(=O)N(C)C)cc43)cc(=O)oc2c1,1.259,"rising, partial curve"
CC(=O)c1c(O)c(C)c(O)c2c1OC1=CC(=O)[C@H](C(C)=O)C(=O)[C@]12C,12.59,"falling, single point"
COC(=O)[C@@]1(Cc2ccccc2)[C@H]2c3cc(C(=O)N(C)C)n(C[C@H](O)CO)c3C[C@H]2CN1C(=O)c1ccccc1,0.3162,"falling, partial curve, poor fit"
COC1=C[C@H]2[C@@H]3Cc4ccc(OC)c(O)c4[C@@]2(CCN3C)CC1=O,0.001259,"rising, full curve, poor fit"
C[C@@H](C(=O)Nc1ccc2ccccc2c1)[C@@H]1C[C@@]1(C)[C@@H](NC(=O)Oc1ccc(F)cc1)c1ccccc1,6.31,"falling, partial curve"
O=C(CSc1nc2ccccc2o1)NCc1ccc2c(c1)OCO2,19.95,"falling, partial curve"
Cc1c(C(O)CN2CCN(Cc3ccc4c(c3)OCO4)CC2)c2ccccc2n1C (stereo unspecified),0.01259,"falling, full curve, poor fit"
COC(=O)[C@@]1(Cc2ccc(OC)cc2)[C@@H]2[C@@H](CC(=O)[C@H]2CC(=O)C(=O)N(C)C)CN1C(=O)c1ccccc1,0.05012,"rising, full curve, poor fit"
c1cncc(-c2nnc(C3CCCCC3)o2)c1,5.012,"falling, single point"
COc1cccc(-c2cc(NCCc3c[nH]c4ccc(OC)cc34)ncn2)c1,10,"falling, partial curve"
O=C(O)[C@H](/C=C\c1ccccc1)c1ccccc1,3.981,"rising, single point"
Cc1ccccc1-c1ccc2ncnc(N3CCN(C)CC3)c2c1,1.995,"falling, partial curve"

Repeated from the top, 2 entries:

| structure | AC50 (µM) | curve as filed |
|---|---|---|
| `CCOC(=O)c1c(N)n(Cc2ccc(OC)cc2)c2nc3ccccc3nc12` | 6.31 | rising, partial curve |
| `CN1CC[C@H](CN2c3ccccc3Sc3ccccc32)C1` | 0.1585 | falling, full curve |